Reference: the supplement of paper PMC12823440, “Inhibitors supercharge kinase turnover through native proteolytic circuits” (Nature, 2025)
Structures can show the parent of a compound that is named as a salt. Some of the results follow. The calls rarely recur for the same compound in another form.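 In K562 cells expressing nanoluciferase-fused kinases, luminescence was recorded at 4 h intervals between 2 and 18 h, normalized as percent of control with DMSO at 100% and a positive control at 0%. A significant (2 sigma) signal drop marks a time point as decreased. The authors' rule for a hit is not shown and takes in more than the number of time points.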

By UniProt entry, the sequences of proteins in these tests, tags left out. Where a name states a change or a piece, a line headed by the entry shows the natural chain unless it says otherwise.
UniProt P11362, whole entry, looked up: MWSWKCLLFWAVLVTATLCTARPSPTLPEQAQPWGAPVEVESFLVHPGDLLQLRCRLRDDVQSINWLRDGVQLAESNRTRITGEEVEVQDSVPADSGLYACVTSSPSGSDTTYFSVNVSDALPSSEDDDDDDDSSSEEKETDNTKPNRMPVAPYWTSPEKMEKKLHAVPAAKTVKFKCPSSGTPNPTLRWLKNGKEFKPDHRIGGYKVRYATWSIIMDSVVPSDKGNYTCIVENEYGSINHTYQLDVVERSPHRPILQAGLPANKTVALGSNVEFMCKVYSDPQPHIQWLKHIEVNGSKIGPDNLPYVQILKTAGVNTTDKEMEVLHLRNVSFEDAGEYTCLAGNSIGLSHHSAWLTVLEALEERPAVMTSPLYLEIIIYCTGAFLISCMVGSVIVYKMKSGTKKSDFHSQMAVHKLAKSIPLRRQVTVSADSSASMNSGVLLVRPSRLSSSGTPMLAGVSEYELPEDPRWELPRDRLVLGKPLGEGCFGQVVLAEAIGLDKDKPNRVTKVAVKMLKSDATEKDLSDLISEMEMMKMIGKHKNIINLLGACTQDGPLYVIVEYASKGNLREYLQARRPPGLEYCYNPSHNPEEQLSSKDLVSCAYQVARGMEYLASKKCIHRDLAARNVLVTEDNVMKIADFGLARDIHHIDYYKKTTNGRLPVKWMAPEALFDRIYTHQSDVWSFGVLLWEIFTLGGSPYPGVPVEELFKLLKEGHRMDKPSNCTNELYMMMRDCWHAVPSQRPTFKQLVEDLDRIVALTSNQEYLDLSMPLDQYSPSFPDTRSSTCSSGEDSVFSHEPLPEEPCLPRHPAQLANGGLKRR
UniProt P21802, whole entry, looked up: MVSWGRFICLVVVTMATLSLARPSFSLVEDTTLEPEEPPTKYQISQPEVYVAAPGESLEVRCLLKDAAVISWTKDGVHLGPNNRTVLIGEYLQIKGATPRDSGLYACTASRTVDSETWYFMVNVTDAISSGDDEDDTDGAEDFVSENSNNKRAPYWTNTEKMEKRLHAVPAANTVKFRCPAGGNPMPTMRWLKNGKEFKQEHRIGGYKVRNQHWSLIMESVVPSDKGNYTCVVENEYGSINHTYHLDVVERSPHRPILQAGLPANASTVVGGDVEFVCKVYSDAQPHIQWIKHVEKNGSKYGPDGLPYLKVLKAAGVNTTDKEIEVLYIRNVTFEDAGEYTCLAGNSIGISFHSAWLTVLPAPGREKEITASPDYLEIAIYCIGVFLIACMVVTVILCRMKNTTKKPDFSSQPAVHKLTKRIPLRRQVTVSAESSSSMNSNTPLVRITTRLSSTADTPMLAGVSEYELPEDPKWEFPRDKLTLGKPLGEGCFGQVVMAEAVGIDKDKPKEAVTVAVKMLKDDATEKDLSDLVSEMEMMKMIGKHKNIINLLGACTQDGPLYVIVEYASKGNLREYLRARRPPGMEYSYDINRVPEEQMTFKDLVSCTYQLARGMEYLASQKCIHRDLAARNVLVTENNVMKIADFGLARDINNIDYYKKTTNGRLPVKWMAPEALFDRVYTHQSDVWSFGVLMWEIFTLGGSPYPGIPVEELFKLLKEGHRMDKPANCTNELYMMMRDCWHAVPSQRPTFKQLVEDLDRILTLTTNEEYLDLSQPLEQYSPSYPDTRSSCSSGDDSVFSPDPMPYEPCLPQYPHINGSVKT
UniProt P22607, whole entry, looked up: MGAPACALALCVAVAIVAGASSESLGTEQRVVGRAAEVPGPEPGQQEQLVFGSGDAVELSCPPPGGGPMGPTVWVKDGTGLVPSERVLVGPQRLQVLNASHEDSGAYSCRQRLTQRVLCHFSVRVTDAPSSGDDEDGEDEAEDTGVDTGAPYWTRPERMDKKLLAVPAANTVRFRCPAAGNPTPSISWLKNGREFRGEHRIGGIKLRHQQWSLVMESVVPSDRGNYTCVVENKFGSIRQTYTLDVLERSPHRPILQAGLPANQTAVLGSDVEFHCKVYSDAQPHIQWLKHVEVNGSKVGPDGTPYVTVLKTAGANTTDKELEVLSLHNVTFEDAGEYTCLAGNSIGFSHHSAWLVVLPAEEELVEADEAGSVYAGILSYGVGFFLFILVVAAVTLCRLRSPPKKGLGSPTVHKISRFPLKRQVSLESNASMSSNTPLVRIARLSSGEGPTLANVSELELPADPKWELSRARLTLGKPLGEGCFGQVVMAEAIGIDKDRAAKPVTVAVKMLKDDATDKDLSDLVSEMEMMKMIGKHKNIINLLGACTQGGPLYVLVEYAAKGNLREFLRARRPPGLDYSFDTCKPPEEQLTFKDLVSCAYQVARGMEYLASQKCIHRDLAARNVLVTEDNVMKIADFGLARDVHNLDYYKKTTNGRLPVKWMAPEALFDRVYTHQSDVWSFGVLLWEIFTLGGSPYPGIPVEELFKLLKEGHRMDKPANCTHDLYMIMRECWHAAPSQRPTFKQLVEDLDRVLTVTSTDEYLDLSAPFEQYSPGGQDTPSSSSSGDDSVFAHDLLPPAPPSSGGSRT
UniProt P06241, whole entry, looked up: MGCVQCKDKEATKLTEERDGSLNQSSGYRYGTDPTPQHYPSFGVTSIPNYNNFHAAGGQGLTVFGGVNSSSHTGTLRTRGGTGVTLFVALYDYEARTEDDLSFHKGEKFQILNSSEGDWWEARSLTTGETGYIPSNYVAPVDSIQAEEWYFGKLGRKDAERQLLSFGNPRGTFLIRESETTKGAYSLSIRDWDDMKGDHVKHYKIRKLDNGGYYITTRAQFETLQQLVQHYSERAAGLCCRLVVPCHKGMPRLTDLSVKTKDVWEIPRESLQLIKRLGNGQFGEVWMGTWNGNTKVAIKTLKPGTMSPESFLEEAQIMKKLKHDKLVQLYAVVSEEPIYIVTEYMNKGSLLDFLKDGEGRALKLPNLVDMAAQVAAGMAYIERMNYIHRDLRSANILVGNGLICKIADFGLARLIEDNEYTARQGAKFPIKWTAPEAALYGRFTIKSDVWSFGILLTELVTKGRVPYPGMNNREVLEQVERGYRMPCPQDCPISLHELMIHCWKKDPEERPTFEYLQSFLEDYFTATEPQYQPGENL
UniProt Q9Y616: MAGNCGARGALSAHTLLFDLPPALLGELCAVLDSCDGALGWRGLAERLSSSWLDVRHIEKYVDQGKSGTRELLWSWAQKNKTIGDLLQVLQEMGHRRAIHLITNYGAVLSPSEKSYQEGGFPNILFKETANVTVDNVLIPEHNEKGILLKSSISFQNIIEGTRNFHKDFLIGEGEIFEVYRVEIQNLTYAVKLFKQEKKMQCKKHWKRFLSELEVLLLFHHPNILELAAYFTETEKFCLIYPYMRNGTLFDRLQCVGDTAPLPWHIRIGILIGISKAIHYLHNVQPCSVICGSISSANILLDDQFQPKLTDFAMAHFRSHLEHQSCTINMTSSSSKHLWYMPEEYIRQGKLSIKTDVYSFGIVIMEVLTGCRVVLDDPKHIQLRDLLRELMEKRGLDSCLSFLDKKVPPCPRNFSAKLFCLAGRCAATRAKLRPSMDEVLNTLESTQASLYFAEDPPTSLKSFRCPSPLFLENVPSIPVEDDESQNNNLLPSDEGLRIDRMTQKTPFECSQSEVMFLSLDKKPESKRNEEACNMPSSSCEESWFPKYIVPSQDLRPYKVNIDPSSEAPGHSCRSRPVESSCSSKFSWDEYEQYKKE
UniProt P06239: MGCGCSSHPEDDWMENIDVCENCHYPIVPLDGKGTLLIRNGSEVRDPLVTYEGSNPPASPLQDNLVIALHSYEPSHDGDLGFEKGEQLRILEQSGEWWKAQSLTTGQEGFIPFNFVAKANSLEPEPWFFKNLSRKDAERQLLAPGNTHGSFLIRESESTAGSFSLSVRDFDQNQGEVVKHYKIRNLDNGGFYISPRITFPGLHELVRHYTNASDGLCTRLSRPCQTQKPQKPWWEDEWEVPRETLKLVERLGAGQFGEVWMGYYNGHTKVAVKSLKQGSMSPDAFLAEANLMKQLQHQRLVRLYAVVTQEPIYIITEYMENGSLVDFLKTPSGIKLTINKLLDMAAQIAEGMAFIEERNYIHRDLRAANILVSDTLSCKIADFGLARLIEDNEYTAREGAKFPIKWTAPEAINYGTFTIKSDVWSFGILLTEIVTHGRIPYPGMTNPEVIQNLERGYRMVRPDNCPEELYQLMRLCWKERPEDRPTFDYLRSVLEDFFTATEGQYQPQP
UniProt Q8IWU2: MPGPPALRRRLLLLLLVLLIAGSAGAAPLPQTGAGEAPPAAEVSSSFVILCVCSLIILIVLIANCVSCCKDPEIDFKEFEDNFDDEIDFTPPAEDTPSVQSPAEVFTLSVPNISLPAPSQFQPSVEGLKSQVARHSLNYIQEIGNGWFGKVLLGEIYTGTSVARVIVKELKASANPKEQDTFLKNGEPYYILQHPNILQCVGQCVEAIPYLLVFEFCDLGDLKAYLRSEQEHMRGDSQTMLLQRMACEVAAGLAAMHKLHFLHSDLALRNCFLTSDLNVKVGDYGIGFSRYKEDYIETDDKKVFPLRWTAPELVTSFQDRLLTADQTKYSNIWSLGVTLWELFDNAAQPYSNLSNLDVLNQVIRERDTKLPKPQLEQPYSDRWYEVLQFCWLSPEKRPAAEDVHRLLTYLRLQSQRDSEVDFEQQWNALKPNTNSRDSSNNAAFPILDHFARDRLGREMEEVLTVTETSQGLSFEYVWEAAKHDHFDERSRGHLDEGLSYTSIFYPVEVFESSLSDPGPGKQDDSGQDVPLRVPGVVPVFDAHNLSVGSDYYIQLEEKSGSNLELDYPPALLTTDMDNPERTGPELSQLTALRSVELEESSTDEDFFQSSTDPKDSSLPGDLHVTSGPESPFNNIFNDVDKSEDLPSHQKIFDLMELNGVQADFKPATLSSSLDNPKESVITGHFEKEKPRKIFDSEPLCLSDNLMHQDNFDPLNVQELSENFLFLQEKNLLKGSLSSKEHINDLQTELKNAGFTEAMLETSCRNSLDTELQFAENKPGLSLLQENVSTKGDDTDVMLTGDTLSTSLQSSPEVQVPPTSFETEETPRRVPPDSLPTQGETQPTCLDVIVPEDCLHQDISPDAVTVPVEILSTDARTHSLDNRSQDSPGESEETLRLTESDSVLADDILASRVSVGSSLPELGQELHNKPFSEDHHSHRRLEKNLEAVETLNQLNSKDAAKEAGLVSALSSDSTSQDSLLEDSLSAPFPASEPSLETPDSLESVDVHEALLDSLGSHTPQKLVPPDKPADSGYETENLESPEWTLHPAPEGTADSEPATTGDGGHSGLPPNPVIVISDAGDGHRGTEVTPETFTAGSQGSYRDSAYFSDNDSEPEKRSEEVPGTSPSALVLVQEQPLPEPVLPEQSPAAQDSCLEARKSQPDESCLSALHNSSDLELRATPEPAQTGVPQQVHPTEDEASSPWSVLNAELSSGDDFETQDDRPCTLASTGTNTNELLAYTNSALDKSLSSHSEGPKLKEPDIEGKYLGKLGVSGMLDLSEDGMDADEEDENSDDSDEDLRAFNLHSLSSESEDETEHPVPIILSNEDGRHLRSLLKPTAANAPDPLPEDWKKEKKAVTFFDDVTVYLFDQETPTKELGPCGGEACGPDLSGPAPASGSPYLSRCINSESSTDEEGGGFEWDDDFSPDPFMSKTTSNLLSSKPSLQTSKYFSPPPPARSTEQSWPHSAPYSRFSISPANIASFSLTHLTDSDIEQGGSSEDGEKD
UniProt Q12851: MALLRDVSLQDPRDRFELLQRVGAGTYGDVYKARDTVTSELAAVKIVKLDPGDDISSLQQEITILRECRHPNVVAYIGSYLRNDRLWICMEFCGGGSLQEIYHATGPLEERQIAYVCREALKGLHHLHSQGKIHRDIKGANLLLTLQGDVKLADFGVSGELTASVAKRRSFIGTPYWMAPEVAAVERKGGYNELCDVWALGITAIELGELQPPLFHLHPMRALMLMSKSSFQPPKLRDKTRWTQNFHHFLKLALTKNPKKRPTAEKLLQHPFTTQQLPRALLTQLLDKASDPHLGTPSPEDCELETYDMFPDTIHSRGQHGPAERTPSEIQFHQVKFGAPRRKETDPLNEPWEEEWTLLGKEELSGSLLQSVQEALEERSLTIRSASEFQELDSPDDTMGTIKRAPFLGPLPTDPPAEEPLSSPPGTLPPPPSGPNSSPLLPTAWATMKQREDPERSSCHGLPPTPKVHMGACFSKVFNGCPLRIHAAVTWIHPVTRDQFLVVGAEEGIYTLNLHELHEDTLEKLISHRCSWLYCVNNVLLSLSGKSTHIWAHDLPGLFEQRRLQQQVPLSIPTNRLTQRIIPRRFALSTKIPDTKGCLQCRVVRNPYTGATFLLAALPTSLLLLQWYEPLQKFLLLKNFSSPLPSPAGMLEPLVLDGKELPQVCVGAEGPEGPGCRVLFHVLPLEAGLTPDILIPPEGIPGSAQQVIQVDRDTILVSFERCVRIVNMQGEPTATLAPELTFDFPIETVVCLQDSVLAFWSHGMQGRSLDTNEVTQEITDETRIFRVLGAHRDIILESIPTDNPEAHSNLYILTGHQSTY

Tests used:
Assay in all cases: kinase-Nluc reporter destabilization hit call (1 = scored as downregulated) (binary); higher = compound decreases kinase abundance
Conditions in all cases: K562; 2-18 h
[1] = molecular target: ERN1 (UniProt O75460)
[2] = molecular target: FGFR1 (UniProt P11362)
[3] = molecular target: FGFR2 (UniProt P21802)
[4] = molecular target: FGFR3 (UniProt P22607)
[5] = molecular target: FGR (UniProt P09769)
[6] = molecular target: FLT3 (UniProt P36888)
[7] = molecular target: FYN (UniProt P06241)
[8] = molecular target: GSK3A (UniProt P49840)
[9] = molecular target: HER2 (UniProt P04626)
[10] = molecular target: INSRR (UniProt P14616)
[11] = molecular target: IRAK3 (UniProt Q9Y616)
[12] = molecular target: JAK1 (UniProt P23458)
[13] = molecular target: LCK (UniProt P06239)
[14] = molecular target: LIMK1 (UniProt P53667)
[15] = molecular target: LIMK2 (UniProt P53671)
[16] = molecular target: LMTK2 (UniProt Q8IWU2)
[17] = molecular target: LYN (UniProt P07948)
[18] = molecular target: MAP2K1 (UniProt Q02750)
[19] = molecular target: MAP2K2 (UniProt P36507)
[20] = molecular target: MAP4K2 (UniProt Q12851)

Measured: kinase-Nluc reporter destabilization hit call

Cc1ccc(F)c(NC(=O)Nc2ccc(-c3cccc4[nH]nc(N)c34)cc2)c1 [Linifanib] (2.5 µM)
active: [2] 1 | [17] 1
inactive: [1] 0 | [3] 0 | [4] 0 | [5] 0 | [6] 0 | [7] 0 | [8] 0 | [9] 0 | [10] 0 | [11] 0 | [12] 0 | [13] 0 | [14] 0 | [15] 0 | [16] 0 | [18] 0 | [19] 0 | [20] 0

O=S(=O)(NCCNC/C=C/c1ccc(Br)cc1)c1cccc2cnccc12 [H-89 (dihydrochloride)] (10 µM)
inactive: [1] 0 | [2] 0 | [3] 0 | [4] 0 | [5] 0 | [6] 0 | [7] 0 | [8] 0 | [9] 0 | [10] 0 | [11] 0 | [12] 0 | [13] 0 | [14] 0 | [15] 0 | [16] 0 | [17] 0 | [18] 0 | [19] 0 | [20] 0

N#C/C(=C\c1ccc(O)c(O)c1)C(=O)NCc1ccccc1 (10 µM)
inactive: [1] 0 | [2] 0 | [3] 0 | [4] 0 | [5] 0 | [6] 0 | [7] 0 | [8] 0 | [9] 0 | [10] 0 | [11] 0 | [12] 0 | [13] 0 | [14] 0 | [15] 0 | [16] 0 | [17] 0 | [18] 0 | [19] 0 | [20] 0

CNC(=O)c1cccc(-c2ccc3c(N4CCOC[C@@H]4C)nc(N4CCOC[C@@H]4C)nc3n2)c1 [Vistusertib] (2.5 µM)
inactive: [1] 0 | [3] 0 | [4] 0 | [5] 0 | [6] 0 | [7] 0 | [8] 0 | [9] 0 | [10] 0 | [11] 0 | [12] 0 | [13] 0 | [14] 0 | [15] 0 | [16] 0 | [17] 0 | [18] 0 | [19] 0 | [20] 0
active: [2] 1

Two compounds picked at random from those above, as already listed:
CNC(=O)c1cccc(-c2ccc3c(N4CCOC[C@@H]4C)nc(N4CCOC[C@@H]4C)nc3n2)c1 [Vistusertib] (2.5 µM)
inactive: [1] 0 | [3] 0 | [4] 0 | [5] 0 | [6] 0 | [7] 0 | [8] 0 | [9] 0 | [10] 0 | [11] 0 | [12] 0 | [13] 0 | [14] 0 | [15] 0 | [16] 0 | [17] 0 | [18] 0 | [19] 0 | [20] 0
active: [2] 1

O=S(=O)(NCCNC/C=C/c1ccc(Br)cc1)c1cccc2cnccc12 [H-89 (dihydrochloride)] (10 µM)
inactive: [1] 0 | [2] 0 | [3] 0 | [4] 0 | [5] 0 | [6] 0 | [7] 0 | [8] 0 | [9] 0 | [10] 0 | [11] 0 | [12] 0 | [13] 0 | [14] 0 | [15] 0 | [16] 0 | [17] 0 | [18] 0 | [19] 0 | [20] 0

Remaining list, next part.

Cc1cc(CS(=O)(=O)c2ccccc2)cc(OCc2ccc(CN3CCC[C@@H]3CO)cc2)c1 [PF-543 (Citrate)] (10 µM)
inactive: [1] 0 | [2] 0 | [3] 0 | [4] 0 | [5] 0 | [6] 0 | [7] 0 | [8] 0 | [9] 0 | [10] 0 | [11] 0 | [12] 0 | [13] 0 | [14] 0 | [15] 0 | [16] 0 | [17] 0 | [18] 0 | [19] 0 | [20] 0

CC(=O)N1CCN(c2ccc(OCC3COC(Cn4ccnc4)(c4ccc(Cl)cc4Cl)O3)cc2)CC1 (stereo not given) [Ketoconazole] (2.5 µM)
inactive: [1] 0 | [2] 0 | [3] 0 | [4] 0 | [5] 0 | [6] 0 | [7] 0 | [8] 0 | [9] 0 | [10] 0 | [11] 0 | [12] 0 | [13] 0 | [14] 0 | [15] 0 | [16] 0 | [17] 0 | [18] 0 | [19] 0 | [20] 0

CC#CC(=O)N[C@H]1CCCN(c2c(F)cc(C(N)=O)c3[nH]c(C)c(C)c23)C1 [Branebrutinib] (10 µM)
inactive: [1] 0 | [2] 0 | [3] 0 | [4] 0 | [5] 0 | [6] 0 | [7] 0 | [8] 0 | [9] 0 | [10] 0 | [11] 0 | [12] 0 | [13] 0 | [14] 0 | [15] 0 | [16] 0 | [17] 0 | [18] 0 | [19] 0 | [20] 0

Nc1ncnc2c1c(-c1cccc(OCc3ccccc3)c1)cn2C1CC(CN2CCCC2)C1 (stereo not given) (2.5 µM)
inactive: [1] 0 | [2] 0 | [3] 0 | [4] 0 | [5] 0 | [6] 0 | [7] 0 | [8] 0 | [9] 0 | [10] 0 | [11] 0 | [12] 0 | [13] 0 | [14] 0 | [15] 0 | [16] 0 | [17] 0 | [18] 0 | [19] 0 | [20] 0

COc1cc(C)c(Sc2cnc(NC(=O)c3ccc(CNC(C)C(C)(C)C)cc3)s2)cc1C(=O)N1CCN(C(C)=O)CC1 (stereo not given) (2.5 µM)
inactive: [1] 0 | [2] 0 | [3] 0 | [4] 0 | [5] 0 | [6] 0 | [7] 0 | [8] 0 | [9] 0 | [10] 0 | [11] 0 | [12] 0 | [13] 0 | [14] 0 | [15] 0 | [16] 0 | [17] 0 | [18] 0 | [19] 0 | [20] 0

COc1c(Cl)cc2c([nH]c3cnccc32)c1NC(=O)c1cccnc1C (10 µM)
inactive: [1] 0 | [2] 0 | [3] 0 | [4] 0 | [5] 0 | [6] 0 | [7] 0 | [8] 0 | [9] 0 | [10] 0 | [11] 0 | [12] 0 | [13] 0 | [14] 0 | [15] 0 | [16] 0 | [17] 0 | [18] 0 | [19] 0 | [20] 0

COc1cc2ncnc(Nc3cccc(O)c3)c2cc1OC (10 µM)
inactive: [1] 0 | [2] 0 | [3] 0 | [4] 0 | [5] 0 | [6] 0 | [7] 0 | [8] 0 | [9] 0 | [10] 0 | [11] 0 | [12] 0 | [13] 0 | [14] 0 | [15] 0 | [16] 0 | [17] 0 | [18] 0 | [19] 0 | [20] 0

O=C1NCCc2[nH]c(-c3ccnc(-c4cnc5ccccc5c4)c3)cc21 (10 µM)
inactive: [1] 0 | [2] 0 | [3] 0 | [4] 0 | [5] 0 | [6] 0 | [7] 0 | [8] 0 | [9] 0 | [10] 0 | [11] 0 | [12] 0 | [13] 0 | [14] 0 | [15] 0 | [16] 0 | [17] 0 | [18] 0 | [19] 0 | [20] 0

COc1cc(Oc2ccnc3cc(OC)c(OC)cc23)ccc1NC(=O)NC(C)c1nccs1 (stereo not given) (2.5 µM)
inactive: [1] 0 | [2] 0 | [3] 0 | [4] 0 | [5] 0 | [6] 0 | [7] 0 | [8] 0 | [9] 0 | [10] 0 | [11] 0 | [12] 0 | [13] 0 | [14] 0 | [15] 0 | [16] 0 | [17] 0 | [18] 0 | [19] 0 | [20] 0

O=C(O)CCNC(=O)c1ccc(/N=N/c2ccc(O)c(C(=O)O)c2)cc1 [Balsalazide] (10 µM)
inactive: [1] 0 | [2] 0 | [3] 0 | [4] 0 | [5] 0 | [6] 0 | [7] 0 | [8] 0 | [9] 0 | [10] 0 | [11] 0 | [12] 0 | [13] 0 | [14] 0 | [15] 0 | [16] 0 | [17] 0 | [18] 0 | [19] 0 | [20] 0

COc1c(CC=C(C)C)c(O)cc2oc(=O)c(-c3ccc(O)cc3O)cc12 [Glycycoumarin] (10 µM)
inactive: [1] 0 | [2] 0 | [3] 0 | [4] 0 | [5] 0 | [6] 0 | [7] 0 | [8] 0 | [9] 0 | [10] 0 | [11] 0 | [12] 0 | [13] 0 | [14] 0 | [15] 0 | [16] 0 | [17] 0 | [18] 0 | [19] 0 | [20] 0

COc1ccc2c(NC(=O)Nc3cccc(C(F)(F)F)n3)ccnc2c1 (10 µM)
inactive: [1] 0 | [2] 0 | [3] 0 | [4] 0 | [5] 0 | [6] 0 | [7] 0 | [8] 0 | [9] 0 | [10] 0 | [11] 0 | [12] 0 | [13] 0 | [14] 0 | [15] 0 | [16] 0 | [17] 0 | [18] 0 | [19] 0 | [20] 0

Cc1cc(F)c(C(=O)Nc2cccc(-c3nncn3C(C)C)n2)cc1-n1cnc(C2CC2)c1 [Selonsertib] (10 µM)
inactive: [1] 0 | [2] 0 | [3] 0 | [4] 0 | [5] 0 | [6] 0 | [7] 0 | [8] 0 | [9] 0 | [10] 0 | [11] 0 | [12] 0 | [13] 0 | [14] 0 | [15] 0 | [16] 0 | [17] 0 | [18] 0 | [19] 0 | [20] 0

COc1cc2ncnc(Nc3cccc(Cl)c3F)c2cc1OC(=O)N1CCN(C)C[C@H]1C [Zorifertinib] (10 µM)
inactive: [1] 0 | [2] 0 | [3] 0 | [4] 0 | [5] 0 | [6] 0 | [7] 0 | [8] 0 | [9] 0 | [10] 0 | [11] 0 | [12] 0 | [13] 0 | [14] 0 | [15] 0 | [16] 0 | [17] 0 | [18] 0 | [19] 0 | [20] 0
